Where “and” joins values, the source holds several entries; their conditions need not be identical. Identical values can stand only once. In all, about 300,000 compounds went through this assay and about 5,200 (1.7%) were called active. The inconclusive results got no clear call from the source; some entries with a clear call stand among them for comparison.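 The calls were made as follows: active = mean replicate activation of at least 50% with a set share of replicates each reaching 50%; inconclusive = only one of those two conditions met; inactive = mean below 50% and too few replicates reaching it.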
Test: HSF-1 activators, primary screen, NIH3T3-HGL cells, MG132 stress, luminescence, single point (AID 504408);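 also: 0% = median of the neutral control wells and 100% = twice that signal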
Settings: NIH3T3-HGL HSF-1 luciferase reporter, MG132, 8 h; at 9 µM; stronger effect = higher value; 100% = twice DMSO control signal

Compound | activation
O=C(CN1C(=O)NC(Cc2c[nH]c3ccccc23)C1=O)Nc1cccc(S(=O)(=O)N2CCOCC2)c1 (stereo unspecified) | inconclusive: 51.3%
Cc1c(-n2c(O)c(C3=c4ccccc4=NC3=O)sc2=O)c(=O)n(-c2ccccc2)n1C | inactive: 30%
CNC(=S)N(Cc1cccs1)Cc1cc2cc(OC)ccc2[nH]c1=O | inconclusive: 50.4%
Fc1ccc(Cn2ccc(-c3cnc(-c4ccccc4)s3)n2)cc1 | active: 62.3%
CC1=NN(C(N)=S)C(=O)C1N=Nc1ccc(C)cc1C (stereo unspecified) | inconclusive: 54.6%
O=C(COC(=O)c1cn(-c2ccccc2)nc1-c1ccccc1)c1ccc([N+](=O)[O-])cc1 | inconclusive: 52.4%
O=C(O)c1cc(-c2ccc(Cl)c(Cl)c2)n(-c2ccccc2)n1 | inconclusive: 52.8%
COc1cc(C)ccc1OCc1cc(C(=O)N(Cc2nccn2C)C(C)C)no1 | active: 57.9%
c1ccc(CSc2nc3ccccc3[nH]2)cc1 | inconclusive: 52.6%
COc1cc(NC(=O)c2cc([N+](=O)[O-])ccc2NC(=O)CNC2CCCCC2C)cc(OC)c1 (stereo unspecified) | inconclusive: 51%
O=C(/C=C/Nc1ccc(F)c(F)c1)c1ccc(Br)cc1 | inconclusive: 51.4%
COc1ccc(/C=N/NC(=O)c2ccoc2C)cc1COc1c(C)cccc1C | inconclusive: 53.9%
Cc1noc(C)c1CSc1nnc(-c2ccccc2)o1 | inconclusive: 50.5%
COc1ccc2oc(=O)c(C(=O)Nc3cccc(C)c3)cc2c1 | inconclusive: 50.5%
O=c1sc2ccccc2n1COc1ccc(Cl)cc1 | inconclusive: 52.5%
COc1cc(/C=N/NC(=O)Cc2csc(C)n2)ccc1OCC(C)C | inactive: 2.85%
CCC(C)C(=O)Nc1nc(C)c(-c2csc(Nc3ccccc3OC)n2)s1 (stereo unspecified) | inactive: 6.09%
Cc1cccc(NC(=O)CSc2nnc(-c3ccccc3C)o2)c1 | inconclusive: 50.5%
Cc1[nH]n(C(N)=S)c(=O)c1N=Nc1ccc2ccccc2c1 | inconclusive: 53%
CCCOc1ncnc2c1[nH]c1ccc(OC)cc12 | inconclusive: 52.1%
Cc1ccc(NC(=S)Nc2ccc3cn[nH]c3c2)cc1 | inactive: -25%
CCOC(=O)c1c(NC(C)=O)sc2c1CCC(C=O)=C2Sc1ccccc1 | inconclusive: 50.9%
Cc1nn(-c2ccccn2)c(C)c1Oc1ccccc1O | inconclusive: 50.8%

Compound | activation
CC(OC(=O)c1ccc2c(c1)OCCO2)C(=O)c1ccccc1 (stereo unspecified) | inconclusive: 51.5%
Cn1c(Cl)cnc1C1CC(=O)c2cc(Cl)ccc2O1 (stereo unspecified) | inconclusive: 56.2%
O=C(CCCN1C(=O)c2cccc3cccc(c23)C1=O)Nc1ccon1 | active: 113%
On1c(-c2ccc(Cl)cc2)nc2ccccc21 | inconclusive: 52.3%
Cn1c(Sc2ccc(C(F)(F)F)cc2[N+](=O)[O-])nnc1-c1ccccc1 | inconclusive: 51.5%
C/C(=N/NC(=O)CNC(=O)c1ccco1)c1ccc(Cl)cc1 | inconclusive: 51.7%
CCN(CC)CC(=O)NN=C(c1ccccc1)c1ccccc1 | inactive: 8.09%
CCC(C)NC(=O)c1csc2c1CCCCC2 (stereo unspecified) | active: 67.2%
O=C(CSc1cccc[n+]1[O-])c1ccccc1Br | inconclusive: 53%
O=C(Nc1ccccc1)N1CCc2ccccc21 | inconclusive: 53%
O=C(Nc1cccc([N+](=O)[O-])c1)Nc1ccc2c(c1)OCCO2 | inconclusive: 56.5%
O=C(Nc1cccc(-c2cn3ccccc3n2)c1)c1cnccn1 | active: 54.2%
CCN(CC)S(=O)(=O)c1ccc(N2CCCCC2)c(NC(=O)C2CCN(C(=O)c3ccc(F)cc3)CC2)c1 | inactive: -0.942%
Cc1ccc(S(=O)(=O)Nc2c(C)n(C)n(-c3ccccc3)c2=O)cc1 | inactive: -13.1% and inactive: -15.8%
CCOC(=O)CSc1nc2ccc(C)cc2cc1C#N | active: 67.8%
CN(C)S(=O)(=O)c1ccc(NC(=O)CSc2nc3ccccc3n2-c2ccccc2)cc1 | inactive: 12.8%
CCOC(=O)N1CCC(Nc2cccc(SC)c2)CC1 | inconclusive: 50.6%
CCCc1nc(SCC(=O)Nc2cc(C)on2)c2ccccc2n1 | active: 106%
CC(C)(C)c1ccc(OCc2ccc(C(=O)N3CCOCC3)o2)cc1 | active: 58.1%
O=C(CSc1nc(-c2ccccc2)cs1)NC(=O)NCc1ccco1 | inconclusive: 50.3%
Cc1ccc(-c2nn[nH]n2)cc1 | inconclusive: 50.5%
COc1ccc2[nH]c3c(C)c4ccncc4c(C)c3c2c1 | inconclusive: 60%
O=C(Nc1nc2ccccc2[nH]1)Nc1ccccc1F | inconclusive: 56.9%

— PubChem BioAssay AID504408 (Broad Institute, 2011)
